Our source for the binding values is doi:10.1101/059964.

By UniProt entry, the sequences of proteins in these tests, tags left out.
UniProt Q13185: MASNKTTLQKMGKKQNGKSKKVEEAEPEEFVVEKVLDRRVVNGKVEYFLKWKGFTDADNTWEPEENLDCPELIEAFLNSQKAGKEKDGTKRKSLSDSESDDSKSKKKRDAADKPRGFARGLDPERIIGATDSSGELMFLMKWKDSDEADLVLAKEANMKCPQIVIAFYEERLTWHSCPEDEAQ
UniProt P83916: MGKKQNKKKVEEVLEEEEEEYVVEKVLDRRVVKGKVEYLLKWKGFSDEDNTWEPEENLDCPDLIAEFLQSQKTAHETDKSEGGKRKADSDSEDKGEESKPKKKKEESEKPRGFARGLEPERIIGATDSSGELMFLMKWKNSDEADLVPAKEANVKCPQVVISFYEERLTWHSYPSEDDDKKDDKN
UniProt Q16576: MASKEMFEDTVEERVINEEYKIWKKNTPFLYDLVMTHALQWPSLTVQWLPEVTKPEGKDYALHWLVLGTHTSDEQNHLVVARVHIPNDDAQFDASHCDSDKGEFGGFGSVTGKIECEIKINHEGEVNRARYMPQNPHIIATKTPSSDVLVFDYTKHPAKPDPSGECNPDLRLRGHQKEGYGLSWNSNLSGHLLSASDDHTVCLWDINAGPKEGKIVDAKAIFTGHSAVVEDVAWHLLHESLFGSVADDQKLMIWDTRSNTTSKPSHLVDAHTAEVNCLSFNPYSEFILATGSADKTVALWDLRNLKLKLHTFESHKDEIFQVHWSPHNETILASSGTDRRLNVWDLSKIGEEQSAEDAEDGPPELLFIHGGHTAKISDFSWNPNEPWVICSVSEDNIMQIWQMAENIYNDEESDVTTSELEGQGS
UniProt Q14186: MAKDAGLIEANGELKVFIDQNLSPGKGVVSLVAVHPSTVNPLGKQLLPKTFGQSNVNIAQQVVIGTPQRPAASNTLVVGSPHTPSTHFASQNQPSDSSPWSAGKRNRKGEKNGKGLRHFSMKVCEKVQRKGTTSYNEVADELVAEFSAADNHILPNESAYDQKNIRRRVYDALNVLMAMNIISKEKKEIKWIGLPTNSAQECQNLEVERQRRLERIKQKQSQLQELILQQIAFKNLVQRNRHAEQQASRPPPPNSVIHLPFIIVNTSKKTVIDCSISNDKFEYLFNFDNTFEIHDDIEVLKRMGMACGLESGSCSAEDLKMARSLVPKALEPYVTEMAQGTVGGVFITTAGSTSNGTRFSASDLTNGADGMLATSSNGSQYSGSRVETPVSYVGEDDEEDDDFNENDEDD
UniProt P61244: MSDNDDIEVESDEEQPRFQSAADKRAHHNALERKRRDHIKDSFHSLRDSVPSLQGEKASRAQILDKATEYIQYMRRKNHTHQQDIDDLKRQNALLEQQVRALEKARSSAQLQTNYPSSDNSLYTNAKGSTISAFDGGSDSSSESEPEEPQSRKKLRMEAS
UniProt O75461: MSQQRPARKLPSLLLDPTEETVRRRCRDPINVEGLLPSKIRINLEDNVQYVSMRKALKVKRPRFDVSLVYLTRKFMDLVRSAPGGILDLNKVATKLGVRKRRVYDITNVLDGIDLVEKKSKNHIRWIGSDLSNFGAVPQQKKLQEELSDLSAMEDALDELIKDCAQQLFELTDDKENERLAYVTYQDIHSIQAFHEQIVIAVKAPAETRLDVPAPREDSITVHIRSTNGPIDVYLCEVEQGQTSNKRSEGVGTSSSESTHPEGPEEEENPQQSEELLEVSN
UniProt Q9BSM1: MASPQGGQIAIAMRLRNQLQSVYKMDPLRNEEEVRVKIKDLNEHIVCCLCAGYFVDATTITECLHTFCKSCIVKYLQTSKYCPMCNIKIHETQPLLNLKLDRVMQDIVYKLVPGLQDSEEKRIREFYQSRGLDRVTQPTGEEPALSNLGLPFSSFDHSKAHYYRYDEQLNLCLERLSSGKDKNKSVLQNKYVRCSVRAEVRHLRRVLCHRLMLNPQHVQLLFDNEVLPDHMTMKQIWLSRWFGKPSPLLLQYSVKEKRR
UniProt Q8IXJ9: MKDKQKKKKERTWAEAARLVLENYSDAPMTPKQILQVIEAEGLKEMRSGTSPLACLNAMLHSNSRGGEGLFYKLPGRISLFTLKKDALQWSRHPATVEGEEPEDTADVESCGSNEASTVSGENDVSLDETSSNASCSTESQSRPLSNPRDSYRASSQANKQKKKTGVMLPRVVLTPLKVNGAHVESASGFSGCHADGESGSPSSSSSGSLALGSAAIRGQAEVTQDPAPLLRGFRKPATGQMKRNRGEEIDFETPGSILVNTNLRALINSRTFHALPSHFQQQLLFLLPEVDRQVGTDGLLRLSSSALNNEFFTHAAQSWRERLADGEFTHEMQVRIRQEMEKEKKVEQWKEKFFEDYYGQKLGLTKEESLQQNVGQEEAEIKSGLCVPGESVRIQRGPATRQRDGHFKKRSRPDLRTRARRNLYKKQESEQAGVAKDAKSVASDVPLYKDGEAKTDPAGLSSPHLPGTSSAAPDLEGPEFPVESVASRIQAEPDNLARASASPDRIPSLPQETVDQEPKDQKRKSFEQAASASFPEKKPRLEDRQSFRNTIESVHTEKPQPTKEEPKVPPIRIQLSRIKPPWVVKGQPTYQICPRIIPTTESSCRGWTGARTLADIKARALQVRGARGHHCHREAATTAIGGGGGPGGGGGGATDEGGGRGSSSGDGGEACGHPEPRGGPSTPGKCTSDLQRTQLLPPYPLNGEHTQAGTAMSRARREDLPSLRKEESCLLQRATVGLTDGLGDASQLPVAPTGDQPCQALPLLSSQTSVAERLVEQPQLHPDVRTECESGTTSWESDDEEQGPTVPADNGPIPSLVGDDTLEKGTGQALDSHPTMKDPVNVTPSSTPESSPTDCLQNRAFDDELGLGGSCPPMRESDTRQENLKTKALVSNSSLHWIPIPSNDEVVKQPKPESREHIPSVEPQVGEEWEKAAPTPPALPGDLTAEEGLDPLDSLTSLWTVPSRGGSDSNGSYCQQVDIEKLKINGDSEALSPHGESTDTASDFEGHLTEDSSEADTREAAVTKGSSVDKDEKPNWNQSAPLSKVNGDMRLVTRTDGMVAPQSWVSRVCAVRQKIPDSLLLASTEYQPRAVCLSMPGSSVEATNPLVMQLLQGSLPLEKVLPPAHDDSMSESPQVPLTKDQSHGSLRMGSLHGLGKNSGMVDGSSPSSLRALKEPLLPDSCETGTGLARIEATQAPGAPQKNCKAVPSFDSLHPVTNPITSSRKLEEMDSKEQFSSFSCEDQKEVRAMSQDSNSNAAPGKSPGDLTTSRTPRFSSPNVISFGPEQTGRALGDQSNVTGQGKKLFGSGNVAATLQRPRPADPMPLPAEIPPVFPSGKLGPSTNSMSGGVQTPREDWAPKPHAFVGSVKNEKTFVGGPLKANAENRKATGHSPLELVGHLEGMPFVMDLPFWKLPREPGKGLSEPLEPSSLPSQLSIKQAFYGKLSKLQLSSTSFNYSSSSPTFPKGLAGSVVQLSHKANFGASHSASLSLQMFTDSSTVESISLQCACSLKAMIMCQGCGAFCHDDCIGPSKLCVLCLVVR
UniProt Q99496: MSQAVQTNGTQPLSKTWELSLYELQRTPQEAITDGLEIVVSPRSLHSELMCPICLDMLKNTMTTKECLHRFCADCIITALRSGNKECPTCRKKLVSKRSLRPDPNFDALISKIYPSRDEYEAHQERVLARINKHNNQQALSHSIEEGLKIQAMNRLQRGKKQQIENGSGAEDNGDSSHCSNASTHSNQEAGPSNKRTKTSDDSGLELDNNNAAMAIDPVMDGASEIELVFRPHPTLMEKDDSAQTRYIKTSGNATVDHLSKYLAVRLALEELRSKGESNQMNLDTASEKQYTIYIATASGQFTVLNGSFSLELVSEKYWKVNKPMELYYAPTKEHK
UniProt Q86SE9: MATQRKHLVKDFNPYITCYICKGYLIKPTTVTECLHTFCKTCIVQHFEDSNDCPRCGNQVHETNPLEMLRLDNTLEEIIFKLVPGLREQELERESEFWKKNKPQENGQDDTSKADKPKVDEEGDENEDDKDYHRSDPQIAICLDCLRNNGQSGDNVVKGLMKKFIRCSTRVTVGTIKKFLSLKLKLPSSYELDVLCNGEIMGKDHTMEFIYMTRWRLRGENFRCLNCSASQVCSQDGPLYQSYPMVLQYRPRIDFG
UniProt Q96JM2: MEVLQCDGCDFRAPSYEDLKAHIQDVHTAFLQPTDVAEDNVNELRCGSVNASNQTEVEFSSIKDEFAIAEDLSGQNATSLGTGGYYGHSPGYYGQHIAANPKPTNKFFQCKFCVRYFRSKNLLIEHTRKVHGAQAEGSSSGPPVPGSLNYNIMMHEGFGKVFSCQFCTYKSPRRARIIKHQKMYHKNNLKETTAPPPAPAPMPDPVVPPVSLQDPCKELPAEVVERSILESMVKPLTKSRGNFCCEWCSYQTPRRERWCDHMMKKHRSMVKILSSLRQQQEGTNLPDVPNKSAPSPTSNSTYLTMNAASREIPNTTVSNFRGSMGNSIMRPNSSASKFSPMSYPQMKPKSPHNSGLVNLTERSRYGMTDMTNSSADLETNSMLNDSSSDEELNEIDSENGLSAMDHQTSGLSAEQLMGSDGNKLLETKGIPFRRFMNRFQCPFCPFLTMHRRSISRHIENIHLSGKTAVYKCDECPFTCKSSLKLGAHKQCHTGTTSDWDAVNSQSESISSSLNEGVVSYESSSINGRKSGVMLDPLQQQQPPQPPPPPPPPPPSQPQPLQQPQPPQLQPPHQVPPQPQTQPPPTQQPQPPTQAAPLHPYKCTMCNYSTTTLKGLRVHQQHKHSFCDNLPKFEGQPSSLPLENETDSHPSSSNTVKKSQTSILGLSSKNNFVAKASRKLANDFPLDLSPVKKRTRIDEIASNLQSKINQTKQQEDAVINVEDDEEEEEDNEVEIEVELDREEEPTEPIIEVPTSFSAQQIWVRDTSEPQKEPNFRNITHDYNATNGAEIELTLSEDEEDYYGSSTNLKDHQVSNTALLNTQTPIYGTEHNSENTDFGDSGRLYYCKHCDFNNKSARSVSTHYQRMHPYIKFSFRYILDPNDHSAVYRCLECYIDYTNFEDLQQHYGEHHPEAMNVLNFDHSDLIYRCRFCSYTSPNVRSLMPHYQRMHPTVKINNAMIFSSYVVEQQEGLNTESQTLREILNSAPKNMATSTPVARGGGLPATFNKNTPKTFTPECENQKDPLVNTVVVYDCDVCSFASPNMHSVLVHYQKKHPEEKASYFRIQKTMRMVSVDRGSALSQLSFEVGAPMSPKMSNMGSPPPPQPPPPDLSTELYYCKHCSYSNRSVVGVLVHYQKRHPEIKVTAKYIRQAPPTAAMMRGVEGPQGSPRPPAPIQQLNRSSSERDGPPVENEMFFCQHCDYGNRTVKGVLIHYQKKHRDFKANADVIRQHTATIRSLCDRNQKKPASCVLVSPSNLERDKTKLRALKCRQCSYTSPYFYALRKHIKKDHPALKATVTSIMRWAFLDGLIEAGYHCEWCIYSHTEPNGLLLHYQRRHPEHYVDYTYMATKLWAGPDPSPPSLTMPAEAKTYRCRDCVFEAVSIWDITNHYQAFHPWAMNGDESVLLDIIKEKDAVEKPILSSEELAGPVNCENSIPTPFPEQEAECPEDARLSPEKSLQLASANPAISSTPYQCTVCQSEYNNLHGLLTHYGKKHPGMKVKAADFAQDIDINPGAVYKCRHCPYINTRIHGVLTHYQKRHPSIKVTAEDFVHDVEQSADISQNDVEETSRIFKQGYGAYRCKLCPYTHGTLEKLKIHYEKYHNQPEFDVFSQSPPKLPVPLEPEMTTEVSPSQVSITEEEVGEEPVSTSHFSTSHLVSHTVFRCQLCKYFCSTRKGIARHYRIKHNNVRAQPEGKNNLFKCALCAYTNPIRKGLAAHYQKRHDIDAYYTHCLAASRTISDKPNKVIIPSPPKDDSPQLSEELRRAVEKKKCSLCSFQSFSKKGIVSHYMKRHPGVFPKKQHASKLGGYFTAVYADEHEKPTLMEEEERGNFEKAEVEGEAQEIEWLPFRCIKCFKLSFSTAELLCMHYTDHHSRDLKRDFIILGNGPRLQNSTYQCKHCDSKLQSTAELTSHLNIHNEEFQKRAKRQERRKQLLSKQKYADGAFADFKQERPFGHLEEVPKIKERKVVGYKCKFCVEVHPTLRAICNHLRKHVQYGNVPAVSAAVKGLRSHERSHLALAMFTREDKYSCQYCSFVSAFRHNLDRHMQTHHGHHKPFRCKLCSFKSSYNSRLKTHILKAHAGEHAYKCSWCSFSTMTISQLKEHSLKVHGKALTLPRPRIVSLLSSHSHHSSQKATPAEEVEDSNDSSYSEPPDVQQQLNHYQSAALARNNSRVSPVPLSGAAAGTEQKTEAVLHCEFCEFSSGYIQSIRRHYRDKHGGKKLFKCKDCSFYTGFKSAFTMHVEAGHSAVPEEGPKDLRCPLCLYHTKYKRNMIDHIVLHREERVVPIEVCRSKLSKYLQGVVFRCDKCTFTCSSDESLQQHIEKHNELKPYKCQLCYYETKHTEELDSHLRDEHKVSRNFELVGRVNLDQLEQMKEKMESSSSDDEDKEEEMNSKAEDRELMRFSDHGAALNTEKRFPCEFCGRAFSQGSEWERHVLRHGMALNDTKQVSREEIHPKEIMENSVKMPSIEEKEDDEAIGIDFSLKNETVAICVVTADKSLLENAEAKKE

No constants are given. Whether binding was seen depends on the method and setting. In cells and extracts the contact can be indirect. These calls come from enrichment with a bait or labelling near it, and not all partners need be listed. For part of these data: A no says only that the protein was not detected with the bait.

Among the targets are CBX3 (human) (UniProt Q13185); CBX1 (human) (UniProt P83916); RBBP7 (human) (UniProt Q16576); EED (human) (UniProt O75530); EZH2 (human) (UniProt Q15910); PHF1 (human) (UniProt O43189); EZH1 (human) (UniProt Q92800); MTF2 (human) (UniProt Q9Y483); TFDP1 (human) (UniProt Q14186); LMBL2 (human) (UniProt Q969R5); MAX (human) (UniProt P61244); E2F6 (human) (UniProt O75461); C10ORF12 (human) (UniProt Q96JN0); PCGF1 (human) (UniProt Q9BSM1); EHMT2 (human) (UniProt Q96KQ7); RING1 (human) (UniProt Q06587); ASXL2 (human) (UniProt Q76L83); ASXL1 (human) (UniProt Q8IXJ9); RING2 (human) (UniProt Q99496); PCGF5 (human) (UniProt Q86SE9).

Common to all, as to test: affinity purification with mass spectrometry
The next assay concerns the target T1, YAF2 (human) (UniProt Q8IY57).
T1 sequence: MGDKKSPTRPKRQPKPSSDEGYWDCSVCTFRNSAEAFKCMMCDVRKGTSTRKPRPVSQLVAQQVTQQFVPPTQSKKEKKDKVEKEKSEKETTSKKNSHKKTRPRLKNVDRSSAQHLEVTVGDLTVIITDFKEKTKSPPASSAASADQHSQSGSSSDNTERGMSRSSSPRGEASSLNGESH

The target in the next assay is T2, RYBP (human) (UniProt Q8N488).
T2 sequence: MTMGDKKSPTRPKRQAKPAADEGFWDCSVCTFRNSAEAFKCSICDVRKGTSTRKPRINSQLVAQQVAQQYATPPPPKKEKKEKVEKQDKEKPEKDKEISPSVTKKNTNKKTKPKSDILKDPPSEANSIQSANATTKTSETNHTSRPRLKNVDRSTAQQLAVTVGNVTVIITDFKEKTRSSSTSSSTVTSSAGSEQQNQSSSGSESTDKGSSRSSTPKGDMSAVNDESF

The target in a further assay is T3, OGT1 (human) (UniProt O15294).
T3 sequence: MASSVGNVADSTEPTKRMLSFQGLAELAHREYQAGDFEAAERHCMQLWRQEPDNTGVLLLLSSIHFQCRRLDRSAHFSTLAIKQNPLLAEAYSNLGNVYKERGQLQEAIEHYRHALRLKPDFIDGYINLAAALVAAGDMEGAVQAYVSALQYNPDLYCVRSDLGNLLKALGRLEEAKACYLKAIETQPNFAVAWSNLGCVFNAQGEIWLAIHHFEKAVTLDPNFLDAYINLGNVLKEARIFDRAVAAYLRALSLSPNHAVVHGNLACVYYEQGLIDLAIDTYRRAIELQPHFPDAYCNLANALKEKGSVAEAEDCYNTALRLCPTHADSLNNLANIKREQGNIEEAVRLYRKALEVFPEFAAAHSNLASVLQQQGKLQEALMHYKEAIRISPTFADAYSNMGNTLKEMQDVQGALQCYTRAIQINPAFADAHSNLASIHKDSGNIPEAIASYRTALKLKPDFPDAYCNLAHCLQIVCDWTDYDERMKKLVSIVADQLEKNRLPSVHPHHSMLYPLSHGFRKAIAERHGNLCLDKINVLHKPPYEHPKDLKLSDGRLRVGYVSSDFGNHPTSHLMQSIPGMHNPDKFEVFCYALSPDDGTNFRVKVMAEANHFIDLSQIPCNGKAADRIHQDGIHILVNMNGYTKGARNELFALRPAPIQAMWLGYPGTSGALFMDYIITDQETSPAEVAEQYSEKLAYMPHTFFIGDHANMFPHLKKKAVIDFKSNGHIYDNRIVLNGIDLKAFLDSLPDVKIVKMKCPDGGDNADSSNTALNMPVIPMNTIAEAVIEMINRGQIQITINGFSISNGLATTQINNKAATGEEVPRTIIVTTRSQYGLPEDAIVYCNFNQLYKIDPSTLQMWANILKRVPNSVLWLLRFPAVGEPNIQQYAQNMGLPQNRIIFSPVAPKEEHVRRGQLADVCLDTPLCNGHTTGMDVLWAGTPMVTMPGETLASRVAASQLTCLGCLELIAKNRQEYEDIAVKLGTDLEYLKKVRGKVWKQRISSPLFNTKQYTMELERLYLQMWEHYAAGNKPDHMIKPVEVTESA

The target of another assay is T4, PCGF3 (human) (UniProt Q3KNV8).
T4 sequence: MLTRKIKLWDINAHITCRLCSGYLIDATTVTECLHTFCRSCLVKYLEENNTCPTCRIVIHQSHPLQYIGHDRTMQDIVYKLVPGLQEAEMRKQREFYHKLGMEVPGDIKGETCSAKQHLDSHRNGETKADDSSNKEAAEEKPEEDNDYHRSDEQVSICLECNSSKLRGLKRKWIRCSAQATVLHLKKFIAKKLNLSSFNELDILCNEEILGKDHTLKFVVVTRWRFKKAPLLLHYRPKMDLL

The next assay concerns the target T5, DCAF7 (human) (UniProt P61962).
T5 sequence: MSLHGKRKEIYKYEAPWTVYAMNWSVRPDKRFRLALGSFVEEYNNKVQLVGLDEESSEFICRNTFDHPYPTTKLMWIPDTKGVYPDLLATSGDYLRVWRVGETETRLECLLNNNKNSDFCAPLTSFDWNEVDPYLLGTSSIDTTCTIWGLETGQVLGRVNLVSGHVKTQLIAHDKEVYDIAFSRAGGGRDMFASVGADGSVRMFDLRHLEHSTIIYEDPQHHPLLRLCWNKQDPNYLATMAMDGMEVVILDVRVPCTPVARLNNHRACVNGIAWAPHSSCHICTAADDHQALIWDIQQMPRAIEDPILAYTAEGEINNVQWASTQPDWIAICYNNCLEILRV

For EHMT2 (from UniProt Q96KQ7 1-1210), the binding result with CBX3 (human) and with CBX1 (human) was “binds” throughout.
In the case of JARD2 (from UniProt Q92833 1-1246), in the assay with RBBP7 (human), the binding entry is listed as “binds”.
As for C17ORF96 (from UniProt A6NHQ4 1-379), the binding entry with EED (human), in the assay with EZH2 (human), with RBBP7 (human), with PHF1 (human), in the assay with EZH1 (human) and with MTF2 (human) was “binds” each time.
For CBX3 (from UniProt Q13185 1-183), the binding entry with TFDP1 (human), in the assay with LMBL2 (human), in the assay with MAX (human) and in the assay with E2F6 (human) was “binds” in each case.
Take PHF19 (from UniProt Q5T6S3 1-580): the binding result with EED (human), with RBBP7 (human), with EZH1 (human) and with C10ORF12 (human) was “binds” in each case.
Turning to TFDP1 (from UniProt Q14186 1-410), the binding result in the assay with LMBL2 (human), in the assay with MAX (human), with CBX3 (human) and with E2F6 (human) was “binds” throughout.
For BCOR (from UniProt Q6W2J9 1-1755), in the assay with PCGF1 (human), the binding entry was “binds”.
For TIF1B (from UniProt Q13263 1-835), the binding result with EHMT2 (human) and with CBX1 (human) was “binds” in each case.
PCGF1 (from UniProt Q9BSM1 1-259): the binding result in the assay with YAF2 (human), with RING1 (human) and with RYBP (human) was “binds” in each case.
Regarding PCGF4 (from UniProt P35226 1-326), the binding result in the assay with YAF2 (human), with RING1 (human) and with RYBP (human) was “binds” each time.
Take ZN462 (from UniProt Q96JM2 1-2506): the binding entry with EHMT2 (human), in the assay with CBX3 (human) and with CBX1 (human) was “binds” each time.
With EHMT1 (from UniProt Q9H9B1 1-1298), the binding result with CBX3 (human) and with CBX1 (human) was “binds” each time.
As to FOXK2 (from UniProt Q01167 1-660), the binding entry with ASXL2 (human) and in the assay with ASXL1 (human) was “binds” in each case.
SKP1 (from UniProt P63208 1-163): the binding result in the assay with PCGF1 (human) is on record as “binds”.
With MLL1 (from UniProt Q03164), in the assay with OGT1 (human), the binding entry is listed as “binds”.
Still for that read-out and setting: with RBBP5 (from UniProt Q15291 1-538) the entry was “binds”.
In the case of AEBP2 (from UniProt Q6ZN18 1-517), the binding result with RBBP7 (human) is reported as “binds”.
Regarding CSK21 (from UniProt P68400 1-391), the binding entry with RING2 (human), in the assay with YAF2 (human), with PCGF5 (human), with RING1 (human), in the assay with PCGF3 (human) and with DCAF7 (human) was “binds” in each case.
For the substance CSK22 (from UniProt P19784 1-350), the binding entry with RING2 (human), with YAF2 (human), in the assay with PCGF5 (human), with RING1 (human), with PCGF3 (human) and with DCAF7 (human) was “binds” throughout.
With ASXL2 (from UniProt Q76L83 1-1435), the binding entry with ASXL1 (human) was “no binding”.
On to FBSL (from UniProt Q9HCM7 1-1045), for which the binding result with RING2 (human), with YAF2 (human), in the assay with PCGF5 (human), with RING1 (human), with RYBP (human) and with PCGF3 (human) was “binds” throughout. The binding entry with DCAF7 (human) is reported as “binds”.
For the substance ASH2L (from UniProt Q9UBL3 1-628), the binding result with OGT1 (human) was “binds”.
Regarding MAX (from UniProt P61244 1-160), the binding entry with TFDP1 (human), in the assay with LMBL2 (human), with CBX3 (human) and with E2F6 (human) was “binds” each time.
E2F6 (from UniProt O75461 1-281): the binding result with TFDP1 (human), with LMBL2 (human), with MAX (human) and with CBX3 (human) was “binds” throughout.
With RING1 (from UniProt Q06587 1-406), the binding entry with RING2 (human) is recorded as “no binding”.
For the substance DIAP1 (from UniProt O60610 1-1272), the binding entry with DCAF7 (human) is “binds”.
On to SET1A (from UniProt O15047 1-1707), for which, in the assay with OGT1 (human), the binding entry is “binds”.
For the substance LMBL2 (from UniProt Q969R5 1-705), the binding entry with TFDP1 (human), with MAX (human), with CBX3 (human) and with E2F6 (human) was “binds” in each case.
Turning to ZN703 (from UniProt Q9H7S9 1-590), in the assay with DCAF7 (human), the binding result is “binds”.
With ZN503 (from UniProt Q96F45 1-646), the binding result with DCAF7 (human) is reported as “binds”.
Regarding WIZ (from UniProt O95785 1-1651), the binding entry with EHMT2 (human), with CBX3 (human) and with CBX1 (human) was “binds” in each case.
On to ASXL1 (from UniProt Q8IXJ9 1-1541), for which, in the assay with ASXL2 (human), the binding entry is reported as “no binding”.
Take BCORL (from UniProt Q5H9F3 1-1785): the binding entry with PCGF1 (human) is “binds”.
